# Several values for one entry are separate records, joined by “and”; a condition that tells them apart may be missing. Equal values may be shown once. Inconclusive means that the source gave no clear call. Such entries were picked first, then a sample of the others. For some of these results: Potencies beside an inconclusive call are fits to weak or partial responses and may not hold up. The source holds several records for some structures; these can differ, active in one and inactive in another. Activity calls are given as the source filed them. The calls were made as follows: active = hit-call score of the fitted dose curve at least 0.9, where 1 is the maximum; inconclusive = response in the unintended direction; inactive = score below 0.9.
# Protein sequences, listed by entry. Tags and fused reporters are not part of them. Lines headed by an entry give the natural chain unless they say otherwise; changes in a name come on top.
# UniProt P49884, whole entry, looked up: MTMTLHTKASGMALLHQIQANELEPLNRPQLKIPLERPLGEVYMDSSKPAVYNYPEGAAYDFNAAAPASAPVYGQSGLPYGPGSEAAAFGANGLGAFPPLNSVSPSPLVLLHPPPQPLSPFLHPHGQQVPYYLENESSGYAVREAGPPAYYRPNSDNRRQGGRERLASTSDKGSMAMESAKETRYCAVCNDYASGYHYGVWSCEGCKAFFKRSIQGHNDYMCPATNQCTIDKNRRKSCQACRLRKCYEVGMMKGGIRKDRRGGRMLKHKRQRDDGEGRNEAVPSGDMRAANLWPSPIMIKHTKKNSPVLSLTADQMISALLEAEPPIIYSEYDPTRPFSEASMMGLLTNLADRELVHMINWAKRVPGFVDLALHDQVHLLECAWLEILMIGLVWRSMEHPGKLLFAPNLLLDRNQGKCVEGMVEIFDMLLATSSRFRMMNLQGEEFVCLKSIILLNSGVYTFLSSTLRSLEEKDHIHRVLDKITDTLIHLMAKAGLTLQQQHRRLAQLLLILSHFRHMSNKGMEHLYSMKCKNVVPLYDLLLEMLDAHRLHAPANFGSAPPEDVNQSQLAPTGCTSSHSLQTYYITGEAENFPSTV
# UniProt P37231: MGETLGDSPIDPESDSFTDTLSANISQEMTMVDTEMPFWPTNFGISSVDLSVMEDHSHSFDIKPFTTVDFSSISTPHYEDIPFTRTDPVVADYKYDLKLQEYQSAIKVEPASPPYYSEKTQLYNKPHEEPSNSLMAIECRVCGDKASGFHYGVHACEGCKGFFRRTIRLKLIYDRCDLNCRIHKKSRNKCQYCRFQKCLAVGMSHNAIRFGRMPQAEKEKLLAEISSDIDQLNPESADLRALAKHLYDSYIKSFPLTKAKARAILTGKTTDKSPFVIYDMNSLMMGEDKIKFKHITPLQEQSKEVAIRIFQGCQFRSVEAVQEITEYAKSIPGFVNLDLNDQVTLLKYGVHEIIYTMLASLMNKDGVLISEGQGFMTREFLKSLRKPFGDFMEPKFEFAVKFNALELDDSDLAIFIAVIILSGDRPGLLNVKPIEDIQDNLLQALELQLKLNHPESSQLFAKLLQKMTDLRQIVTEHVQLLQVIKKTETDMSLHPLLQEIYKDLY
# UniProt P10275: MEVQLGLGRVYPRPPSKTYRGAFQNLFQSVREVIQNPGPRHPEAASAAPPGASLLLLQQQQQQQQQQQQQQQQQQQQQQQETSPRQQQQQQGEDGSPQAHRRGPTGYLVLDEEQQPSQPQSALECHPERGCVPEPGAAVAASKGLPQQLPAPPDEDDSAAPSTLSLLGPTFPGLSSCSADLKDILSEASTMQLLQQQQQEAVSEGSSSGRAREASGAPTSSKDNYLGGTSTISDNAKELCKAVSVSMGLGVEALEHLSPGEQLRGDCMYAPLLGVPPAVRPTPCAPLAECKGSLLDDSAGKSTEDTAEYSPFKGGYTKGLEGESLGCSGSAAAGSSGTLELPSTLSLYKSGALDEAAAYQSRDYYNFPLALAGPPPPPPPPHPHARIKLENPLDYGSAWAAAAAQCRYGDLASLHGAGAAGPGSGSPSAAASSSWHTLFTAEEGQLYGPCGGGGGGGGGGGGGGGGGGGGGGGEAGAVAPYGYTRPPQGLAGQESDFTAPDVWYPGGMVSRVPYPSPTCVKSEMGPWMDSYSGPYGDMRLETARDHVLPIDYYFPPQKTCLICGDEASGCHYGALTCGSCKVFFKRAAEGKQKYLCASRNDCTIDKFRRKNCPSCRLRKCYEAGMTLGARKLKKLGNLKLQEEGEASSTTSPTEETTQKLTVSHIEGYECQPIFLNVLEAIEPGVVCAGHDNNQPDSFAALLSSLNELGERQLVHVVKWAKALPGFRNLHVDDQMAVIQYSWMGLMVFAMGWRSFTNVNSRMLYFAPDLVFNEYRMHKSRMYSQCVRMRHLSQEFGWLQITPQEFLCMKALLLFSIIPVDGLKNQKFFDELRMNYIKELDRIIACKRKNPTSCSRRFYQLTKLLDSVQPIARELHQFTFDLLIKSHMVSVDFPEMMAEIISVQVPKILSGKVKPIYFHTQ
# UniProt P16257, whole entry, looked up: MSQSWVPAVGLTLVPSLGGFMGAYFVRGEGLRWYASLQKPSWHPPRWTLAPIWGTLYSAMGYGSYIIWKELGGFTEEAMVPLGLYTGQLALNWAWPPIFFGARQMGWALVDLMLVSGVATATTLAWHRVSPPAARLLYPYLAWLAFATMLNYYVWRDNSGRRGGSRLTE
# UniProt O75469: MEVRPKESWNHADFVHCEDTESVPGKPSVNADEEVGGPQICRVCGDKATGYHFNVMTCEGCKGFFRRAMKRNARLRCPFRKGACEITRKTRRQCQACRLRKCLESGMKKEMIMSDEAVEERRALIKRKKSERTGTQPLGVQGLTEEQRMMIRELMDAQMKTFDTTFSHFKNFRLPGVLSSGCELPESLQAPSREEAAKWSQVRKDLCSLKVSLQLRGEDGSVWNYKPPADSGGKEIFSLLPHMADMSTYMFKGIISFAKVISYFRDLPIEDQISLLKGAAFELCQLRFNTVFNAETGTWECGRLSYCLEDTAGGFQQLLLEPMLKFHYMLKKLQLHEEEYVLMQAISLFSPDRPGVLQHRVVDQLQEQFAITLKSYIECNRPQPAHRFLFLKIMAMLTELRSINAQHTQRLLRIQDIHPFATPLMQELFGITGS
# UniProt P60484: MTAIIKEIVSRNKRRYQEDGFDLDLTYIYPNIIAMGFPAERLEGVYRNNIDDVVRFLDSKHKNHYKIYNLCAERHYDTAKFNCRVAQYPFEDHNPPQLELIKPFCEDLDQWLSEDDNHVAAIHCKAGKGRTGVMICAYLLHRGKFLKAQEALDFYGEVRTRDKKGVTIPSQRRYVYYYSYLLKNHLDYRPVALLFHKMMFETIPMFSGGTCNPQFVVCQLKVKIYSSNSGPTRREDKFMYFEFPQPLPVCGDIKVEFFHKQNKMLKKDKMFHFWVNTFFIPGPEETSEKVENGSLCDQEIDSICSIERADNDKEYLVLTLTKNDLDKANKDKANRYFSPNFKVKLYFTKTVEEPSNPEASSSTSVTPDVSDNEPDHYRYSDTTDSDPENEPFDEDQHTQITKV
# How the values were obtained:
# [1] = target: bovine Estrogen Receptor (ER), ESR1 (gene 407238) (UniProt P49884); test: NVS_NR_bER: NovaScreen (NVS) Nuclear Receptor Binding Assay for bovine Estrogen Receptor (ER) (AID 2283345);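 also: actives lower the bound radioligand count which means they displace the ER ligand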
# Method in brief: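 Bovine uterine membranes; tritiated or iodinated radioligand; competitive displacement; 18 h; scintillation read; DMSO negative control; 25 uM duplicates, then concentration series for actives.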
# [2] = target: Peroxisome proliferator-activated receptor gamma (Homo sapiens) (UniProt P37231); test: NVS_NR_hPPARg: NovaScreen (NVS) Nuclear Receptor Binding Assay for human Peroxisome Proliferator-activated Receptor gamma (PPARg) (AID 2283370)
# Method in brief: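 Cell-free fluorescence polarization binding to human PPARg protein, read 2 h after dosing. Primary screen in duplicate at 25 uM, actives followed in concentration series; loss of signal relative to DMSO scored.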
# [3] = tested on: chicken Androgen Receptor (AR), gene 422165; test: ATG_chAR_XSP2: Attagene TRANS-FACTORIAL Multi-Species (XSP2) HepG2 Assay for chicken Androgen Receptor (AR) (AID 2283819);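 also: GAL4-driven reporter transcript measured by RT-PCR then capillary electrophoresis; hits raise reporter mRNA above DMSO so potency is for activation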
# Method in brief: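 Readout is reporter mRNA induction via RT-PCR/capillary electrophoresis after 24 h chemical exposure, positive direction relative to DMSO. Transiently transfected HepG2 express chimeric chicken AR–GAL4; AR stimulated by 3 nM 6-alpha-fluorotestosterone and 1.5 nM norgestrel.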
# [4] = ATG_M_19_XSP2: Attagene TRANS-FACTORIAL Multi-Species (XSP2) HepG2 Assay for M32 Transcription Factor (Internal Marker) (AID 2283822)
# Method in brief: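 Internal background marker in a multi-species nuclear receptor TRANS panel: transfected HepG2 cells exposed 24 h, with 3 nM 6-alpha-fluorotestosterone and 1.5 nM norgestrel present. Readout is RT-PCR of reporter transcripts resolved by capillary electrophoresis, gain-of-signal versus DMSO.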
# [5] = ATG_XTT_Cytotoxicity: Cytotoxicity Assessment in the Attagene TRANS-FACTORIAL HepG2 Assay (AID 2283584);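 as to AC50: XTT signal for cell number as viability in transfected HepG2 cells; cells exposed to compound for 24 h before reading; active means loss of viability signal versus DMSO baseline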
# Method in brief: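 HepG2 cells transiently transfected with GAL4-UAS multiple reporter units, dosed 24 h; cytotoxicity read by XTT as loss of signal versus DMSO baseline.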
# [6] = Tanguay_ZF_120hpf_CFIN_legacy: (Legacy) Oregon State University Tanguay Lab 120 Hour Post-fertilization zebrafish Assay for Caudal Fin Malformation (AID 2283649)
# Method in brief: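 Dechorionated Tropical 5D wild-type embryos, one per well from 6 hpf, static exposure to 120 hpf at 28C in 0.64% DMSO. Caudal fin malformation scored by brightfield as present/absent; not scored in dead embryos.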
# [7] = read-out: sulfotransferase (SULT2A), SULT2A1 (gene 6822); test: CLD_SULT2A_6hr: CellzDirect (CLD) Gene Expression Assay for sulfotransferase (SULT2A) at 6 hours (AID 2283669);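 also: hits raise transcript level above the DMSO vehicle baseline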
# Method in brief: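 Measured 6 h after dosing, SULT2A1 mRNA in human hepatocyte lysates was quantified by S1 nuclease protection with chemiluminescent detection. Increases fitted against 0.2% DMSO vehicle baseline; phase-contrast cytotoxicity recorded yes/no.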
# [8] = read-out: xenobiotic metabolism (CYP1A1), CYP1A1 (gene 1543); test: CLD_CYP1A1_24hr: CellzDirect (CLD) Gene Expression Assay for xenobiotic metabolism (CYP1A1) at 24 hours (AID 2283673);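 also: CYP1A1 mRNA level by quantitative nuclease protection with chemiluminescence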
# Method in brief: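 Transcript levels were read at 24 h by qNPA chemiluminescence in human liver primary cells. Cells got daily fresh dosing at multiple concentrations (vehicle 0.2% DMSO). Induction fitted upward against DMSO; phase-contrast cytotoxicity annotated.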
# [9] = read-out: xenobiotic metabolism (CYP1A2), CYP1A2 (gene 1544); test: CLD_CYP1A2_48hr: CellzDirect (CLD) Gene Expression Assay for xenobiotic metabolism (CYP1A2) at 48 hours (AID 2283703)
# Method in brief: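 Cytotoxicity was flagged yes/no from morphology, while CYP1A2 transcript induction was detected by qNPA chemiluminescence after a 48-hour exposure. Human primary hepatocyte cultures from separate donors received fresh dosing solutions daily over two days, with 0.2% DMSO as vehicle and baseline.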
# [10] = target: Ratio of Nucleoli Translocation and Cytoplasm, AR (gene 367) (UniProt P10275); test: UPITT_HCI_U2OS_AR_TIF2_Nucleoli_Cytoplasm_Ratio_Antagonist: University of Pittsburgh U2OS Androgen Receptor-Transcriptional Intermediary Factor 2 (AR-TIF2) Antagonism High Content Imaging Assay for Ratio of Nucleoli Translocation and Cytoplasm (AID 2283999);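 also: antagonists lower the DHT-driven ratio of nucleolar to cytoplasmic red signal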
# Method in brief: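 Compounds were added to U2OS cells carrying red-fluorescent AR and green-fluorescent TIF2, first at 20 uM, with hits confirmed in triplicate and titrated from 0.195 to 50 uM. Nucleolar versus cytoplasmic AR-RFP fluorescence was then quantified by imaging, with analysis relative to DHT.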
# [11] = CCTE_Shafer_MEA_acute_AB: CCTE's Alamar Blue Assay for Cytotoxicity in the Neural Acute Assay, Shafer Lab (AID 2284069);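 also: active compounds lower the viability signal compared with DMSO wells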
# Method in brief: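 Cytotoxicity endpoint for acute MEA exposures of primary rat cortical neurons on day 13 or 15. Resazurin reduction is read fluorescently at 544/590 nm, with DMSO as the negative-control baseline.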
# [12] = CCTE_Shafer_MEA_dev_AB: CCTE's Alamar Blue Assay for Cytotoxicity in the Neural Network Formation Assay, Shafer Lab (AID 2284083);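 also: resazurin reduction fluorescence as viability of cultured neurons; twelve days of exposure from plating with re-dosing on DIV 5 and 9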
# Method in brief: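 Cytotoxicity companion to the developmental MEA: primary rat cortical neurons, 12-day exposure starting day 0, compound refreshed DIV 5 and 9; resazurin fluorescence, fitted against DMSO vehicle.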
# [13] = CCTE_Mundy_HCI_Cortical_Synap_Neur_Matur_NeuronCount: CCTE's Synaptogenesis and Neurite Maturation Assay in rat cortical cells for Neuron Count, Mundy Lab (AID 2284242);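 as to AC50: neuron number from Hoechst nuclei and MAP2 staining by high-content imaging; hits reduce neuron count versus DMSO baseline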
# Method in brief: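 Cortical cells from rat are plated, treated with AraC at DIV 5, and exposed to test chemicals with a media change at DIV 7. At DIV 12 they are fixed and immunostained (MAP2, synaptophysin), and imaged neuron counts are compared against DMSO controls.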
# [14] = Tanguay_ZF_120hpf_EYE_legacy: (Legacy) Oregon State University Tanguay Lab 120 Hour Post-fertilization zebrafish Assay for Eye Malformation (AID 2283636);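 also: binary presence or absence of eye malformation scored by brightfield in 120 hpf larvae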
# Method in brief: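 5D wild-type embryos, pronase-dechorionated at 4 hpf; static exposure 6–120 hpf, 28C, dark; DMSO 0.64% final; 5uM trimethyltin chloride positive control. Binary eye-defect scoring at 120 hpf; dead embryos not scored.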
# [15] = Tanguay_ZF_120hpf_TR_legacy: (Legacy) Oregon State University Tanguay Lab 120 Hour Post-fertilization zebrafish Assay for Touch Response (AID 2283667)
# Method in brief: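 Binary touch-response call at 120 hpf, analysed as gain of signal versus DMSO baseline. Wild-type 5D larvae, static exposure at 28C, 0.64% DMSO final; 5uM trimethyltin chloride as positive control.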
# [16] = read-out: xenobiotic metabolism (CYP1A2), CYP1A2 (gene 1544); test: CLD_CYP1A2_24hr: CellzDirect (CLD) Gene Expression Assay for xenobiotic metabolism (CYP1A2) at 24 hours (AID 2283683)
# Method in brief: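 CYP1A2 mRNA induction measured by quantitative nuclease protection (chemiluminescent) in human primary hepatocytes 24 h after multi-concentration chemical dosing with daily fresh solutions. DMSO (0.2%) baseline; positive-direction fitting; morphology-based cytotoxicity noted.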
# [17] = target: rat Peripheral-type Benzodiazepine Receptor (PBR), Tspo (gene 24230) (UniProt P16257); test: NVS_MP_rPBR: NovaScreen (NVS) Membrane Protein Assay for rat Peripheral-type Benzodiazepine Receptor (PBR) (AID 2283335)
# Method in brief: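 Competitive displacement of specific radioligand from rat kidney membrane PBR, read by filtration and scintillation after 1 h. Compounds first tested at 25 uM in duplicate, then in concentration series; signal loss relative to DMSO.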
# [18] = target: Nuclear receptor subfamily 1 group I member 2 (Homo sapiens) (UniProt O75469); test: NVS_NR_hPXR: NovaScreen (NVS) Nuclear Receptor Binding Assay for human Pregnane X Receptor (PXR) (AID 2283365);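 also: a drop in FRET signal versus DMSO baseline means the compound binds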
# Method in brief: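 Cell-free TR-FRET binding assay with extracted human PXR protein, read 2 h after dosing. Primary screen run in duplicate at 25 uM, actives followed in concentration series; loss of signal fitted against DMSO baseline.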
# [19] = target: human Phosphatase and Tensin Homolog (PTEN), PTEN (gene 5728) (UniProt P60484); test: NVS_ENZ_hPTEN: NovaScreen (NVS) Enzymatic Assay for human Phosphatase and Tensin Homolog (PTEN) (AID 2283203)
# Method in brief: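 Loss of fluorescent product signal after mobility-shift separation reports PTEN activity, recombinant human enzyme, 1 h after compound addition. Single 25 uM duplicate screen, then concentration-response on actives; DMSO baseline.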
compound,measurement,setting,value
CC(C)C1CCC(Cc2ccc(Cl)cc2)C1(O)Cn1cncn1 (stereo not drawn),AC50,[1],inconclusive: 25 µM
same,outcome,[2],inactive
same,AC50,[3],inconclusive: 5.05 µM and inconclusive: 11.1 µM
same,AC50,[4],inconclusive: 11.1 µM
CNC(=O)Oc1ccc(N(C)C)c(C)c1,AC50,[5],inconclusive: 100 µM
O=c1ccc(=O)[nH][nH]1,outcome,[6],inactive
same,AC50,[7],inconclusive: 0.263 µM
same,AC50,[8],inconclusive: 0.529 µM
same,AC50,[9],inconclusive: 20 µM
same,AC50,[10],inconclusive: 50 µM
CC(C)(OOC(C)(C)c1ccccc1)c1ccccc1,outcome,[10],inactive
CCCCN(CCCCO)N=O,outcome,[5],inactive
CS(=O)(=O)c1ccc(C(=O)C2C(=O)CCCC2=O)c(Cl)c1COCC(F)(F)F,AC50,[11],inconclusive: 15 µM
same,outcome,[12],inactive
same,AC50,[13],inconclusive: 15 µM
COCC(C)N(C(=O)CCl)c1c(C)csc1C (stereo not drawn),AC50,[14],active: 24.8 µM
same,AC50,[6],active: 36.2 µM
same,AC50,[15],active: 26.3 µM
same,AC50,[16],inconclusive: 20 µM
same,AC50,[9],inconclusive: 36.7 µM
C#CCC1=C(C)C(OC(=O)C2C(C=C(C)C)C2(C)C)CC1=O (stereo not drawn),outcome,[6],inactive
same,outcome,[7],inactive
same,AC50,[3],inconclusive: 176 µM
same,AC50,[4],inconclusive: 100 µM
same,AC50,[11],inconclusive: 0.00298 µM
CCOP(=O)(OCC)Oc1ccc([N+](=O)[O-])cc1,outcome,[17],inactive
C1=Cc2cccc3cccc1c23,outcome,[12],inactive
CCC(=O)c1ccc(Cl)cc1,outcome,[18],inactive
COc1cc(OC)nc(NC(=O)NS(=O)(=O)c2cc(NC=O)ccc2C(=O)N(C)C)n1,outcome,[7],inactive
same,outcome,[9],inactive
O=Cc1ccco1,AC50,[5],inconclusive: 0.0918 µM
Nc1ccc(Oc2ccc(N)cc2)cc1,outcome,[2],inactive
Cc1cccc(N)c1N,AC50,[5],inconclusive: 106 µM
CCOP(=S)(OCC)OC(Cl)C(Cl)(Cl)Cl (stereo not drawn),AC50,[15],inconclusive: 199 µM
same,outcome,[7],inactive
same,outcome,[13],inactive
CCOP(=S)(OCC)OP(=S)(OCC)OCC,AC50,[19],inconclusive: 0.113 µM

# Exported with bars between the fields: part of the list above
compound | measurement | setting | value
O=c1ccc(=O)[nH][nH]1 | AC50 | [9] | inconclusive: 20 µM
COCC(C)N(C(=O)CCl)c1c(C)csc1C (stereo not drawn) | AC50 | [6] | active: 36.2 µM
CCOP(=S)(OCC)OC(Cl)C(Cl)(Cl)Cl (stereo not drawn) | outcome | [7] | inactive

# — PubChem BioAssay (EPA / NIEHS)
